PubChem BioAssay AID330 (DTP/NCI, 2004)
The list shows only some results of the screen, not a fair sample: it gathers tests that were run many times, whatever their T/C, doses with no T/C, and many T/C values between a quarter and a half above the control. Further doses and runs are listed elsewhere. T/C is the treated group as % of the vehicle group. Some doses have a count of surviving animals in place of a T/C: the source files T/C as zero there, which appears to mark a toxic dose or a test without result, not a measured value. Some survivor counts are full or nearly so, which does not show that the dose was tolerated: the source hardly ever lists a survival T/C far under the control, and the zero likely stands for such cases as well. Counts of survivors are from the toxicity check (mostly the fifth day) where no day follows; animals may have died later. Schedules are NCI's codes, taken here to give the interval after Q, in days (D) or hours (H), and the number of doses after X. Some structures stand for samples that the source files as different forms (salt, stereo form or complex); doses refer to the form tested. Some entries hold several experiments; their values stand side by side, smallest first. For survival time, the PubChem record calls one and a half times the control and up active, and a quarter to a half above the control has no call in these data; cut-offs in other NCI protocols can differ. Some T/C values carry the count of animals alive at the toxicity check (mostly the fifth day); where none is given, no animal had died by that day.

Test system: P388 leukemia ip, CD2F1 mice, survival T/C
Experiment: NCI In Vivo Anticancer Drug Screen. Data for tumor model P388 Leukemia (intraperitoneal) in CD2F1 (CDF1) mice
Conditions: T/C endpoint: median survival time, higher T/C = longer survival
[1] = dose: 200.0 mg/kg/injection, schedule: Q01DX005 (ip), vehicle: saline with Tween-80
[2] = dose: 200.0 mg/kg/injection, schedule: Q01DX009 (ip), vehicle: saline with Tween-80
[3] = dose: 0.06 mg/kg/injection, schedule: Q01DX009 (ip), vehicle: DMSO
[4] = dose: 0.25 mg/kg/injection, schedule: Q01DX009 (ip), vehicle: DMSO
[5] = dose: 0.5 mg/kg/injection, schedule: Q01DX009 (ip), vehicle: DMSO
[6] = dose: 1.0 mg/kg/injection, schedule: Q01DX009 (ip), vehicle: DMSO
[7] = dose: 2.0 mg/kg/injection, schedule: Q01DX009 (ip), vehicle: DMSO
[8] = dose: 2.0 mg/kg/injection, schedule: Q01DX009 (ip), vehicle: other
[9] = dose: 4.0 mg/kg/injection, schedule: Q01DX009 (ip), vehicle: other

## CCCCOc1cc2c(cc1C(C)c1ccccc1)OCO2 (stereo not drawn)
dose: 100.0 mg/kg/injection, schedule: Q01DX005 (ip), vehicle: saline with Tween-80
  survivor count: 6 of 6
[1]
  survivor count: 6 of 6

## CCOP(=O)(CC(=O)c1cc2ccccc2[nH]1)OCC
dose: 100.0 mg/kg/injection, schedule: Q01DX009 (ip), vehicle: saline
  survivor count: 6 of 6

## CCCCCCCCCCSCC(N)CO (stereo not drawn)
dose: 50.0 mg/kg/injection, schedule: Q01DX009 (ip), vehicle: saline with Tween-80
  survivor count: 6 of 6
dose: 100.0 mg/kg/injection, schedule: Q01DX009 (ip), vehicle: saline with Tween-80
  survivor count: 0 of 6
[2]
  survivor count: 0 of 6

## COc1cc(Br)c(/C=C/[N+](=O)[O-])cc1OC
dose: 200.0 mg/kg/injection, schedule: Q04DX003 (ip), vehicle: saline with Tween-80
  survivor count: 4 of 6
dose: 400.0 mg/kg/injection, schedule: Q04DX003 (ip), vehicle: saline with Tween-80
  survivor count: 3 of 6

## Cc1cn(CCCOc2c3occc3cc3ccc(=O)oc23)c(=O)[nH]c1=O
dose: 100.0 mg/kg/injection, schedule: Q01DX005 (ip), vehicle: Klucel (hydroxypropylcellulose) (HPC)
  survivor count: 4 of 6
dose: 200.0 mg/kg/injection, schedule: Q01DX005 (ip), vehicle: Klucel (hydroxypropylcellulose) (HPC)
  survivor count: 6 of 6

## CCN(CC)C(Cc1ccccc1)=NC(C)(C)C
[2]
  survivor count: 0 of 6

## CCOC(=O)C[n+]1cc2ccccc2cc1C
[1]
  survivor count: 3 of 5

## C/C=C/C=C/c1cc2cc3c(c(O)c2c(=O)[nH]1)C1(CC3)C(O)=c2c(=O)c3c(=O)cc(OC)c(=O)c=3c(=O)c2=C1O (stereo not drawn)
[3]
  T/C: 106, 122, 151 % of control
  survivor count: 5 of 6
dose: 0.12 mg/kg/injection, schedule: Q01DX009 (ip), vehicle: DMSO
  T/C: 146 % of control
dose: 0.13 mg/kg/injection, schedule: Q01DX009 (ip), vehicle: DMSO
  survivor count: 6 of 6
[4]
  T/C: 97, 104 [5 of 6 alive], 134 % of control
  survivor count: 2 of 6
[5]
  T/C: 91 and 200 % of control
  survivor count: 0 of 6, 5 of 6, 6 of 6
[6]
  T/C: 100 and 166 % of control
  survivor count: 0 of 6, 1 of 6, 5 of 6
dose: 1.0 mg/kg/injection, schedule: Q01DX009 (ip), vehicle: other
  survivor count: 6 of 6
[7]
  T/C: 129 % of control
  survivor count: 0 of 6 and 1 of 6
[8]
  T/C: 141 % of control
  survivor count: 3 of 6
dose: 3.0 mg/kg/injection, schedule: Q01DX009 (ip), vehicle: Klucel (hydroxypropylcellulose) (HPC)
  T/C: 137 % of control
dose: 3.0 mg/kg/injection, schedule: Q01DX009 (ip), vehicle: saline with Tween-80
  T/C: 138 % of control
dose: 4.0 mg/kg/injection, schedule: Q01DX009 (ip), vehicle: DMSO
  survivor count: 0 of 6
[9]
  T/C: 138 % of control
  survivor count: 0 of 6
dose: 6.0 mg/kg/injection, schedule: Q01DX009 (ip), vehicle: saline with Tween-80
  T/C: 144 % of control
dose: 8.0 mg/kg/injection, schedule: Q01DX009 (ip), vehicle: DMSO
  survivor count: 0 of 6
dose: 24.0 mg/kg/injection, schedule: Q01DX009 (ip), vehicle: saline with Tween-80
  survivor count: 4 of 6
dose: 500.0 micrograms/kg/injection, schedule: Q01DX009 (ip), vehicle: water
  T/C: 132 % of control
dose: 2000.0 micrograms/kg/injection, schedule: Q01DX009 (ip), vehicle: other
  T/C: 133 % of control
dose: 2000.0 micrograms/kg/injection, schedule: Q01DX009 (ip), vehicle: water
  survivor count: 6 of 6
